“And” between values parts separate entries of the source, which are not always exact repeats. Identical values can stand only once. Like-named read-outs stand apart in the source and are kept apart here. Further values from the same series stand in other lists.
Experiments:
[1] = tested on: QS-controlled luxCDABE operon; type: cell-based
VCA0107-GFP = assay: Qrr4 regulation of VCA0107-GFP translational fusion, anhydrous tetracycline-inducible qrr4 (S4 Fig); type: cell-based, E. coli
Description: (§1) We examined whether Qrr regulation of CqsS is direct or indirect using a CqsS-mKATE2 translational fusion in E. coli expressing inducible qrr4. We reasoned that, if CqsS production is controlled by Qrr4, repression of CqsS-mKATE2 should occur when Qrr4 is induced. We verified that our system works by showing that inducible Qrr4 is capable of repressing a previously-identified direct target, VCA0107-GFP [24]. However, no repression of CqsS-mKATE2 occurred following induction of Qrr4 (S4 Fig).
(§2) To assay qrr4 regulation of cqsS, the relative fluorescence of translational fusions (VCA0107B-GFP and CqsS-mKATE2) was measured in E. coli BWR1. E. coli carrying one of these plasmids also contained either an empty plasmid (pZA31) or pZA31 carrying anhydrous tetracycline-inducible qrr4. Qrr4-mediated repression of CqsS-mKATE2 was assessed. VCA0107-GFP is a known Qrr4-repressed target and was used as a positive control to show the system was functional. Overnight cultures were diluted 1:50 into fresh medium and aliquotted in triplicate into 96 well plates. […] OD600 and fluorescence were assessed using an Envision 2103 Multilabel Reader (Perkin Elmer).
(§3) Supplementary file pgen.1006826.s008.tiff: S4 Fig Qrr4 indirectly regulates cqsS. Fluorescence from plasmid-encoded VCA0107-GFP (circles) and CqsS-mKATE2 (squares) was measured in E. coli. Either an empty vector (pZA31-lucNB, black) or pZA31-lucNB carrying tetracycline-inducible qrr4 (pYS245, red) was present in each strain. VCA0107 encodes a type VI secretion system component that is regulated by Qrr4. Data represent two experiments conducted in triplicate. Error bars represent standard errors of the mean. (TIFF) Click here for additional data file.

CqsS-mKATE2 = assay: Qrr4 regulation of CqsS-mKATE2 translational fusion, anhydrous tetracycline-inducible qrr4 (S4 Fig); type: cell-based, E. coli
Description: as §1, §2, §3

CCCCCCCCCC(=O)[C@@H](O)CC [CAI-1, (S)-3-hydroxytridecan-4-one]
Light production ([1]; LuxS-CqsA- +CAI-1 5 μM, OD600 1.451): 3246037000 RLU
Light production ([1]; LuxS-CqsA- +CAI-1 5 μM, OD600 1.711): 39158390000 RLU
Light production ([1]; LuxS-CqsA- +CAI-1 5 μM, OD600 2.015): 53101740000 RLU
Light production ([1]; LuxS-CqsA-, AI-2 1 μM, CAI-1 5 μM, OD600 0.005): 108432 RLU

Cc1c2c(c(O)c3c(O)cccc13)C(=O)[C@]1(O)C(=O)C(C(N)=O)=C(O)[C@@H](N(C)C)[C@@H]1C2 [aTc]
Relative reporter signal, single replicates (VCA0107-GFP; pVC107 Qrr4, aTc 0.0976562 ng/ml): 0.9613 and 1.012 and 1.026 and 0.9977 and 1.0006 and 1.002
Relative reporter signal, single replicates (VCA0107-GFP; pVC107 Qrr4, aTc 0.195312 ng/ml): 1.0024 and 0.9188 and 0.8807 and 1.002 and 1.013 and 1.06
Relative reporter signal, single replicates (VCA0107-GFP; pVC107 Qrr4, aTc 0.390625 ng/ml): 1.03 and 1.023 and 1.039 and 1.065 and 1.021 and 1.045
Relative reporter signal, single replicates (VCA0107-GFP; pVC107 Qrr4, aTc 0.78125 ng/ml): 0.9926 and 1.068 and 1.059 and 1.057 and 1.043 and 1.106
Relative reporter signal, single replicates (VCA0107-GFP; pVC107 vector, aTc 0.0976562 ng/ml): 0.9758 and 1 and 1.022 and 0.9773 and 1.005 and 1.019
Relative reporter signal, single replicates (VCA0107-GFP; pVC107 vector, aTc 0.195312 ng/ml): 1.4128 and 0.8809 and 0.9699 and 1.012 and 1.135 and 1.031
Relative reporter signal, single replicates (VCA0107-GFP; pVC107 vector, aTc 0.390625 ng/ml): 1.5695 and 0.9939 and 0.9892 and 1.006 and 1.039 and 1.108
Relative reporter signal, single replicates (VCA0107-GFP; pVC107 vector, aTc 0.78125 ng/ml): 1.141 and 1.081
Relative reporter signal, single replicates (CqsS-mKATE2; pCqsS Qrr4, aTc 0.0976562 ng/ml): 1.002 and 0.9544 and 1.043 and 0.9944 and 1.027 and 0.9789 and 0.936 and 0.9952 and 1.069
Relative reporter signal, single replicates (CqsS-mKATE2; pCqsS Qrr4, aTc 0.195312 ng/ml): 1.086 and 1.038 and 0.9407 and 1.155 and 1.153 and 1.027 and 0.9251 and 0.879 and 0.9441
Relative reporter signal, single replicates (CqsS-mKATE2; pCqsS Qrr4, aTc 0.390625 ng/ml): 1.032 and 1.045 and 1.22 and 1.012 and 1.144 and 1.091 and 0.946 and 0.9769 and 0.9113
Relative reporter signal, single replicates (CqsS-mKATE2; pCqsS Qrr4, aTc 0.78125 ng/ml): 1.064 and 1.133 and 1.188 and 1.111 and 1.121 and 0.9345 and 0.8987 and 1.005 and 0.9315
Relative reporter signal, single replicates (CqsS-mKATE2; pCqsS Qrr4, aTc 1.5625 ng/ml): 1.213 and 1.0656 and 1.1995 and 0.9438 and 1.051 and 0.9457 and 1.024 and 1.087 and 1.0937
Relative reporter signal, single replicates (CqsS-mKATE2; pCqsS Qrr4, aTc 3.125 ng/ml): 1.02 and 0.9773 and 1.076 and 1.059 and 1.1
Relative reporter signal, single replicates (CqsS-mKATE2; pCqsS vector, aTc 0.0976562 ng/ml): 0.9752 and 1.006 and 1.018 and 1.013 and 0.9989 and 0.988
Relative reporter signal, single replicates (CqsS-mKATE2; pCqsS vector, aTc 0.195312 ng/ml): 0.9701 and 1.016 and 1.12 and 0.9675 and 0.9215 and 0.852
Relative reporter signal, single replicates (CqsS-mKATE2; pCqsS vector, aTc 0.390625 ng/ml): 1.111 and 1.086 and 1.064 and 1.002 and 0.9378 and 0.9418
Relative reporter signal, single replicates (CqsS-mKATE2; pCqsS vector, aTc 0.78125 ng/ml): 0.9001 and 0.9821 and 1.036 and 0.9415 and 0.9034 and 0.902
Relative reporter signal, single replicates (CqsS-mKATE2; pCqsS vector, aTc 1.5625 ng/ml): 1.062 and 0.9934 and 1.045 and 1.019 and 0.9848 and 0.9027
